Data published in the supplement of paper PMC10849652.
The other results are listed elsewhere or left out.

Amino acid sequences for entries named in this document (tags omitted). A change or cut given only in a name is not applied to a line headed by its entry.
UniProt Q96DB5: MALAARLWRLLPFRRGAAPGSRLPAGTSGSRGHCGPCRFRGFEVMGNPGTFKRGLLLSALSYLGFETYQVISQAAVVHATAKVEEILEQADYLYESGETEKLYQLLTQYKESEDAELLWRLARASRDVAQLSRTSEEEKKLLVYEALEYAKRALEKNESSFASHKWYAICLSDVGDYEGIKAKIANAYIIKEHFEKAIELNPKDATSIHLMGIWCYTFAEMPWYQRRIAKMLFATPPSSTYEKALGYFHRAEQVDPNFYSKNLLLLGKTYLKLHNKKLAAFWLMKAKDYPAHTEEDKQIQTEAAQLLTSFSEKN
UniProt Q6JBY9, whole entry, looked up: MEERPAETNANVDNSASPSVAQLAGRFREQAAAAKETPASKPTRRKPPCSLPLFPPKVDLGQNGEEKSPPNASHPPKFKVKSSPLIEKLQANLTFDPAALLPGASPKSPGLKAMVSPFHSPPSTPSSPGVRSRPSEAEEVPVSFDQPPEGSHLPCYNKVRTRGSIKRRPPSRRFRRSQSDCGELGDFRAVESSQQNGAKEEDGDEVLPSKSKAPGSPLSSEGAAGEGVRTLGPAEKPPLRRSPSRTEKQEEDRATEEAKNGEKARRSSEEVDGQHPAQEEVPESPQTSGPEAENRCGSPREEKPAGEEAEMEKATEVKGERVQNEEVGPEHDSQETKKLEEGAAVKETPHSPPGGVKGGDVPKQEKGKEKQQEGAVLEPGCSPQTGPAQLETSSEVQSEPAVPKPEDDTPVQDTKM
UniProt Q9BWE0: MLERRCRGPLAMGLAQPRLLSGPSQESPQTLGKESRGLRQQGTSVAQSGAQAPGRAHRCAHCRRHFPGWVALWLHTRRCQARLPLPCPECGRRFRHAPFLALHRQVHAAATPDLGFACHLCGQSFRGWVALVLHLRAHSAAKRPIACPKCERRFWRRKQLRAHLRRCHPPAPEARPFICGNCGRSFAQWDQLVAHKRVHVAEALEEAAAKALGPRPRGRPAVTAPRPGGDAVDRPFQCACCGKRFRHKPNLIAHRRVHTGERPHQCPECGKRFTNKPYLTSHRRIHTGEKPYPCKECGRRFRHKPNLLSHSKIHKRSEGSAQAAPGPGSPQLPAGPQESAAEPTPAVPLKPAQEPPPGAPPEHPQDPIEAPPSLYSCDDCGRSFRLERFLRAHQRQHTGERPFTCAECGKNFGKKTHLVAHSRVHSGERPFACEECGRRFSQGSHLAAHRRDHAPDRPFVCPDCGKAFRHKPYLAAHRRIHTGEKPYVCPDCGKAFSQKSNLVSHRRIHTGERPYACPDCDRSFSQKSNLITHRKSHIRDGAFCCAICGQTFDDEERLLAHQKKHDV
UniProt Q96HR9: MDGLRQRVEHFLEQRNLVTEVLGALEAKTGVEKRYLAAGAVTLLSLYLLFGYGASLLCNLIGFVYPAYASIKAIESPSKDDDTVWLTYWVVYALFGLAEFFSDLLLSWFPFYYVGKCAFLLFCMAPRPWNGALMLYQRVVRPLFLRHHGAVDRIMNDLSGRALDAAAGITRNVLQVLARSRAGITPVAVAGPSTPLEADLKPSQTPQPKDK
UniProt Q96D71: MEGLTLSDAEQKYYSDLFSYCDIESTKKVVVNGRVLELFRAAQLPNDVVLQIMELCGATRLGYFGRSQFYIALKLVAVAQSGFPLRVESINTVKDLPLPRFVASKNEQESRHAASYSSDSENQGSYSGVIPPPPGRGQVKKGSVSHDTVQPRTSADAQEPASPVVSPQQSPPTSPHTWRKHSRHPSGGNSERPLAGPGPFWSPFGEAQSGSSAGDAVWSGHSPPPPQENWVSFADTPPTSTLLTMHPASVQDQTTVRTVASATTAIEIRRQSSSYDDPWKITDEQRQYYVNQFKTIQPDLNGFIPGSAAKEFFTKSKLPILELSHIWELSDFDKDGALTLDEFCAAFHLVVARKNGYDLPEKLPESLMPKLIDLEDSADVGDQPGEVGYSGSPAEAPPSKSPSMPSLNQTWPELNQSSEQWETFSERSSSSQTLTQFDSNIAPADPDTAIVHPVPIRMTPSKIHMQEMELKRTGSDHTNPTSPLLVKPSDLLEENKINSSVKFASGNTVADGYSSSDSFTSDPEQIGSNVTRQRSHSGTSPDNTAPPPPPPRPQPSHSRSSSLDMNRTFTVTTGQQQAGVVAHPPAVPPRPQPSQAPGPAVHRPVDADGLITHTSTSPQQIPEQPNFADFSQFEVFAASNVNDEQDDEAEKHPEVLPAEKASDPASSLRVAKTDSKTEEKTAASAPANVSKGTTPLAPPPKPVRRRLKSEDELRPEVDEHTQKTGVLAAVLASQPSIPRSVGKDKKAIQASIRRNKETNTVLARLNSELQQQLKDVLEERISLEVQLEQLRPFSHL
UniProt O43353, whole entry, looked up: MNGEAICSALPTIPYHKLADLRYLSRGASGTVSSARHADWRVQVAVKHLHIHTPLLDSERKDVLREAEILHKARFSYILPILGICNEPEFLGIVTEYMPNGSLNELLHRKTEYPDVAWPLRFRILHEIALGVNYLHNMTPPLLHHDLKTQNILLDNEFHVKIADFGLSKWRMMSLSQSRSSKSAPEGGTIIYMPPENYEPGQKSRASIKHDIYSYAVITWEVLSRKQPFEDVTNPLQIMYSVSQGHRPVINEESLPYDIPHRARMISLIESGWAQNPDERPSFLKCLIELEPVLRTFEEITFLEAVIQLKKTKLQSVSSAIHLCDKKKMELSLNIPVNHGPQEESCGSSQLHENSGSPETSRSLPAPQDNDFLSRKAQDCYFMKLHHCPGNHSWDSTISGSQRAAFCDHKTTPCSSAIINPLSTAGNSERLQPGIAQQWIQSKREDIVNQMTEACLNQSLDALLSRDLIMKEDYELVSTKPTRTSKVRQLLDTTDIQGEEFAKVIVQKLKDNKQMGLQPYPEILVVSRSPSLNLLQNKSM
UniProt Q5XPI4: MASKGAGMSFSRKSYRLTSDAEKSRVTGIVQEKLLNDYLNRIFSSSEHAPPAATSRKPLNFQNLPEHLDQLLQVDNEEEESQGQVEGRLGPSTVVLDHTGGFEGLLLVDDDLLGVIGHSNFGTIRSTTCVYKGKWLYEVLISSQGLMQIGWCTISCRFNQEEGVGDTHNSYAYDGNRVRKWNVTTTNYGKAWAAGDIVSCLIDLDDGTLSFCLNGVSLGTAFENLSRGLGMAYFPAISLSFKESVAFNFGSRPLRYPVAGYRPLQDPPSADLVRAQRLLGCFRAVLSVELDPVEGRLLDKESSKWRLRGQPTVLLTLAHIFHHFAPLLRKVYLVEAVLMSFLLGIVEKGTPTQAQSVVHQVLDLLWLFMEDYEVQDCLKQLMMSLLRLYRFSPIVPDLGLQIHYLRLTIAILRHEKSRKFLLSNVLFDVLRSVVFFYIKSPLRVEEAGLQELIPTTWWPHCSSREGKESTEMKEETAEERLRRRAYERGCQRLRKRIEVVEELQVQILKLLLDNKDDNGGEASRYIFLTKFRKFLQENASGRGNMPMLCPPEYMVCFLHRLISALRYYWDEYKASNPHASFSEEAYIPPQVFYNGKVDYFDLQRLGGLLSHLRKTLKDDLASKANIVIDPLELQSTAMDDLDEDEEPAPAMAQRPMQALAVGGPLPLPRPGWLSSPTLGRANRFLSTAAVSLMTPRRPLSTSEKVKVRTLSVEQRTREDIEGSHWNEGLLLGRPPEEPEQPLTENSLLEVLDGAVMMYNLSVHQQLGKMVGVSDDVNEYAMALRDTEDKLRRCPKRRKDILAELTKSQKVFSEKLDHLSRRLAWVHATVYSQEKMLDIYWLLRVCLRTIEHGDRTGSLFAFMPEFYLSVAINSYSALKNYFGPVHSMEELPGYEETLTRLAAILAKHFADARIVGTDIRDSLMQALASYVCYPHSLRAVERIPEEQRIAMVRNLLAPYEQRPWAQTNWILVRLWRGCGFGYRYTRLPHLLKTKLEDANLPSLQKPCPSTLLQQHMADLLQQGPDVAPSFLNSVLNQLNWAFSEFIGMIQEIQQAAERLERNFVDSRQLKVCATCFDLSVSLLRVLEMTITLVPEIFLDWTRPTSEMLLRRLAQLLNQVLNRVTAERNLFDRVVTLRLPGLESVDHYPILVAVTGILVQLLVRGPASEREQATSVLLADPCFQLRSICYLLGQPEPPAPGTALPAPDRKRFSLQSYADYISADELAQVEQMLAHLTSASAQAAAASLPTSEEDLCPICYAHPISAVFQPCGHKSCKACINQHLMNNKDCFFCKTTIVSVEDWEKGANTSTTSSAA
UniProt P82980: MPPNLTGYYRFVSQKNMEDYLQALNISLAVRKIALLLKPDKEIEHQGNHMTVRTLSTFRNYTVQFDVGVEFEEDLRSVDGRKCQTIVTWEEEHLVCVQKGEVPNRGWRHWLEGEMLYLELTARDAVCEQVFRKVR
UniProt Q9BTD8: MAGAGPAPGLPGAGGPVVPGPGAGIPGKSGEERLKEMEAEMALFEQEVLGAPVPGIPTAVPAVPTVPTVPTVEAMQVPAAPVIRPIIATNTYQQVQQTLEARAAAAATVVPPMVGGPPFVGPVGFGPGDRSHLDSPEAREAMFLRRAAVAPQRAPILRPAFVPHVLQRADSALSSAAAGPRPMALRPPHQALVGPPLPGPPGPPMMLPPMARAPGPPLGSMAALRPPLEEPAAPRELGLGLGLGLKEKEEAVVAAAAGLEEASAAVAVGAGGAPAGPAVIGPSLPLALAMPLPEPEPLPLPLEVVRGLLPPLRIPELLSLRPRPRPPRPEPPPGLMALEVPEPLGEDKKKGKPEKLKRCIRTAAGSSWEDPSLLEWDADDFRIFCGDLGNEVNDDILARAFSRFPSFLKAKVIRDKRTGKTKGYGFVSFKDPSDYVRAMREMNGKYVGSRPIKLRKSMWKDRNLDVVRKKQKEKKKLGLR
UniProt O00287: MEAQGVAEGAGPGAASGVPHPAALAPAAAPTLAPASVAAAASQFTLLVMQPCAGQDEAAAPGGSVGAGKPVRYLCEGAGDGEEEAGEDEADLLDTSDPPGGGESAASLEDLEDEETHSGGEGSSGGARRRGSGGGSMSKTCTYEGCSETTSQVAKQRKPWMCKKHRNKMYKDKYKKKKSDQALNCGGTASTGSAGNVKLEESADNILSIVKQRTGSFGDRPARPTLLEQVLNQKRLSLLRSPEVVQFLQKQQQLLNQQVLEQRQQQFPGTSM
UniProt Q8IXI2: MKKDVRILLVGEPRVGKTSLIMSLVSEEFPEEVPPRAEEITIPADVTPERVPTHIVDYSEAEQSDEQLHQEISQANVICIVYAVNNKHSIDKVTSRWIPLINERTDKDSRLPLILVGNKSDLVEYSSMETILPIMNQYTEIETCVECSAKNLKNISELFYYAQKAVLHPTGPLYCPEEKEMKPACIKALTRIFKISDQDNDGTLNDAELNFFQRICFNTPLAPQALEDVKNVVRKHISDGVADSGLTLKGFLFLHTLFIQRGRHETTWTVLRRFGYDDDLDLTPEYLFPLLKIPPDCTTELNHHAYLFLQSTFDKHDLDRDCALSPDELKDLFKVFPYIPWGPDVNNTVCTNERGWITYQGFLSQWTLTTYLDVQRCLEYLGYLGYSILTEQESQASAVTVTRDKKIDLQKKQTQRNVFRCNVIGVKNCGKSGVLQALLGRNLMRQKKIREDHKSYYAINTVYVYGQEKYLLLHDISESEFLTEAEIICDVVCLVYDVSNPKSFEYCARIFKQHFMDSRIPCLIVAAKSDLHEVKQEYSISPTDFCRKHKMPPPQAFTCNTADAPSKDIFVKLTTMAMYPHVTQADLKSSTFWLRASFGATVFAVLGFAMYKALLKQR
UniProt Q9NTX7: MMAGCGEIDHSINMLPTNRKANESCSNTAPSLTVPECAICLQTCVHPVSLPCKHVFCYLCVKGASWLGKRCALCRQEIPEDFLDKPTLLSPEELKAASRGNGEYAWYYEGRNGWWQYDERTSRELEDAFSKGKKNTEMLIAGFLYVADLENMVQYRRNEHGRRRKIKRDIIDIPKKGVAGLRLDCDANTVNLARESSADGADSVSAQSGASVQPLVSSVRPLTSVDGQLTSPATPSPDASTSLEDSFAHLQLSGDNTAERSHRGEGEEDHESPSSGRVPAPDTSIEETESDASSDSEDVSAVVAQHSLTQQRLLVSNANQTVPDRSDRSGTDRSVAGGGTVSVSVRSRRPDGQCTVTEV
UniProt Q8WZ73: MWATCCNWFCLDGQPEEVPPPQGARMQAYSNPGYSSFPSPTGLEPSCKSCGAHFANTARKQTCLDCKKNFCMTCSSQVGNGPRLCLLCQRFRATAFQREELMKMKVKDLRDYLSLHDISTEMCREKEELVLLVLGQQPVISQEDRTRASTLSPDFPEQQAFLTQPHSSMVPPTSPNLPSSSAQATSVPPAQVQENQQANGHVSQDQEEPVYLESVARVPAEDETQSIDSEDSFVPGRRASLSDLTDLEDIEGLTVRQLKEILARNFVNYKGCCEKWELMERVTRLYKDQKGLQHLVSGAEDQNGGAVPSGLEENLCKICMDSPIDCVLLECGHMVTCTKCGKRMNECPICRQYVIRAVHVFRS

Key:
Assay in all cases: log2 fold change, soluble protein after heating vs DMSO (PISA); higher = thermal stabilisation; K562 cells, 10 uM, 30 min; active = over 0.2 and 3.5 SD of the protein, either way, in both replicates (recomputed)
[1] = compound: CS(=O)(=O)c1ccc(-c2cnc(N)c(C(=O)Nc3ccccc3)n2)cc1
Procedure, shortened: (§1)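 K562 cells at 2×10^6 cells/mL were treated for 30 min with 10 μM compound, and aliquots were heated for 3 min over 48°C-58°C before pooling. Extraction used PBS with 0.5% NP-40 at 4°C, and soluble protein was the supernatant after 21,000xg for 90 min, measured by TMTpro 16plex LC-MS/MS with channel sums equalised. Thermal stability values, relative to control samples and from duplicates, are log2 fold changes.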

crizotinib = compound: C[C@@H](Oc1cc(-c2cnn(C3CCNCC3)c2)cnc1N)c1c(Cl)ccc(F)c1Cl [crizotinib]
Procedure, shortened: as §1

[2] = compound: C[C@@H]1COCCN1C2=NC(=NC(=C2)C3(CC3)S(=O)(=O)C)C4=C5C=CNC5=CC=C4
Procedure, shortened: as §1

[3] = compound: C[C@H](C1=CC=C(C=C1)C(=O)NC2=C3C=CNC3=NC=C2)N
Procedure, shortened: as §1

duvelisib = compound: C[C@H](Nc1ncnc2nc[nH]c12)c1cc2cccc(Cl)c2c(=O)n1-c1ccccc1 [duvelisib]
Procedure, shortened: as §1

gandotinib = compound: Cc1cc(Nc2cc(CN3CCOCC3)c3nc(C)c(Cc4ccc(Cl)cc4F)n3n2)n[nH]1 [gandotinib]
Procedure, shortened: as §1

tozasertib = compound: Cc1cc(Nc2cc(N3CCN(C)CC3)nc(Sc3ccc(NC(=O)C4CC4)cc3)n2)n[nH]1 [tozasertib]
Procedure, shortened: as §1

[4] = compound: Cc1cc(SCc2sc(-c3ccc(C(F)(F)F)cc3)nc2C)ccc1OCC(=O)O
Procedure, shortened: as §1

doramapimod = compound: Cc1ccc(-n2nc(C(C)(C)C)cc2NC(=O)Nc2ccc(OCCN3CCOCC3)c3ccccc23)cc1 [doramapimod]
Procedure, shortened: as §1

ispinesib = compound: Cc1ccc(C(=O)N(CCCN)[C@@H](c2nc3cc(Cl)ccc3c(=O)n2Cc2ccccc2)C(C)C)cc1 [ispinesib]
Procedure, shortened: as §1

bafetinib = compound: Cc1ccc(NC(=O)c2ccc(CN3CC[C@H](N(C)C)C3)c(C(F)(F)F)c2)cc1Nc1nccc(-c2cncnc2)n1 [bafetinib]
Procedure, shortened: as §1

[5] = compound: Cc1cccc(CC(=O)N2CCc3c2ccc(-c2cn(C)c4ncnc(N)c24)c3F)n1
Procedure, shortened: as §1

nilotinib = compound: Cc1cn(-c2cc(NC(=O)c3ccc(C)c(Nc4nccc(-c5cccnc5)n4)c3)cc(C(F)(F)F)c2)cn1 [nilotinib]
Procedure, shortened: as §1

[6] = compound: Cc1nc(Nc2n[nH]c3c2CN(C(=O)N[C@H](CN(C)C)c2ccccc2)C3(C)C)c2sccc2n1
Procedure, shortened: as §1

dasatinib = compound: Cc1nc(Nc2ncc(C(=O)Nc3c(C)cccc3Cl)s2)cc(N2CCN(CCO)CC2)n1 [dasatinib]
Procedure, shortened: as §1

[7] = compound: Cc1ncc(-c2ccnc(Nc3ccc(S(C)(=O)=O)cc3)n2)n1C(C)C
Procedure, shortened: as §1

[8] = compound: Cn1cc(-c2ccc3c(c2)CCN3C(=O)Cc2cccc(C(F)(F)F)c2)c2c(N)ncnc21
Procedure, shortened: as §1

[9] = compound: Cn1cc(-c2ccc3nnc(C(F)(F)c4ccc5ncccc5c4)n3n2)cn1
Procedure, shortened: as §1

tipifarnib = compound: Cn1cncc1[C@@](N)(c1ccc(Cl)cc1)c1ccc2c(c1)c(-c1cccc(Cl)c1)cc(=O)n2C [tipifarnib]
Procedure, shortened: as §1

mubritinib = compound: FC(F)(F)c1ccc(/C=C/c2nc(COc3ccc(CCCCn4ccnn4)cc3)co2)cc1 [mubritinib]
Procedure, shortened: as §1

Measured: log2 fold change

RMDN1 (UniProt Q96DB5)
inactive: [1] 0.028 | crizotinib -0.058 | [2] 0.066 | [3] -0.04 | duvelisib 0.02 | gandotinib -0.022 | tozasertib 0.026 | [4] 0.025 | doramapimod -0.001 | ispinesib -0.08 | bafetinib -0.077 | [5] 0.065 | nilotinib -0.027 | [6] -0.006 | dasatinib -0.043 | [7] 0.018 | [8] 0.062 | [9] -0.006 | tipifarnib -0.04 | mubritinib 0.086

RNF214 (UniProt Q8ND24)
inactive: [1] 0.014 | crizotinib -0.009 | [2] -0.06 | [3] 0.053 | duvelisib -0.005 | gandotinib 0.023 | tozasertib 0.027 | [4] 0.011 | doramapimod 0.008 | ispinesib -0.012 | bafetinib -0.019 | [5] 0.055 | nilotinib -0.061 | [6] -0.022 | dasatinib -0.12 | [7] 0.04 | [8] -0.051 | [9] -0.011 | tipifarnib -0.056 | mubritinib 0.041

RCSD1 (UniProt Q6JBY9)
inactive: [1] 0.076 | crizotinib 0.019 | [2] -0.027 | [3] 0.04 | duvelisib 0.003 | gandotinib 0.005 | tozasertib -0.033 | [4] -0.082 | doramapimod -0.011 | ispinesib -0.071 | bafetinib 0.013 | [5] -0.101 | nilotinib 0.096 | [6] -0.111 | dasatinib 0.13 | [7] -0.009 | [8] -0.036 | [9] 0.003 | tipifarnib 0.014 | mubritinib 0.042

REPIN1 isoform 4 (UniProt Q9BWE0)
inactive: [1] 0 | crizotinib -0.066 | [2] -0.044 | [3] 0 | duvelisib 0.002 | gandotinib 0.074 | tozasertib -0.031 | [4] -0.026 | doramapimod -0.013 | ispinesib -0.008 | bafetinib 0 | [5] -0.022 | nilotinib 0.013 | [6] -0.014 | dasatinib 0.06 | [7] 0.024 | [8] -0.007 | [9] -0.03 | tipifarnib -0.018 | mubritinib 0.005

REEP6 (UniProt Q96HR9)
inactive: [1] -0.026 | crizotinib 0.139 | [2] -0.037 | [3] -0.175 | duvelisib 0.125 | gandotinib 0.059 | tozasertib -0.082 | [4] -0.053 | doramapimod -0.012 | ispinesib 0.226 | bafetinib -0.072 | [5] -0.112 | nilotinib -0.025 | [6] 0.026 | dasatinib 0.082 | [7] -0.062 | [8] 0.085 | [9] 0.165 | tipifarnib -0.057 | mubritinib -0.017

REPS1 (UniProt Q96D71)
inactive: [1] 0.005 | crizotinib -0.064 | [2] -0.08 | [3] 0.073 | duvelisib -0.15 | gandotinib 0.186 | tozasertib 0.062 | [4] 0.01 | doramapimod 0.247 | ispinesib -0.139 | bafetinib 0.059 | [5] -0.066 | nilotinib 0.096 | [6] -0.055 | dasatinib -0.019 | [7] -0.014 | [8] -0.197 | [9] -0.076 | tipifarnib 0.099

RIPK2 (UniProt O43353)
inactive: [1] -0.017 | crizotinib -0.109 | [2] 0.045 | [3] -0.017 | duvelisib 0.044 | gandotinib 0.003 | tozasertib -0.036 | [4] 0.084 | doramapimod -0.011 | ispinesib 0.054 | bafetinib -0.156 | [5] 0.044 | nilotinib -0.031 | [6] -0.003 | dasatinib -0.122 | [7] 0.036 | [8] 0.043 | [9] 0.011 | tipifarnib -0.027 | mubritinib -0.008

RNF123 isoform 2 (UniProt Q5XPI4)
inactive: [1] -0.021 | crizotinib 0.183 | [2] 0.066 | [3] -0.049 | duvelisib 0.022 | gandotinib -0.164 | tozasertib 0.04 | [4] 0.079 | doramapimod 0.071 | ispinesib -0.024 | bafetinib -0.061 | [5] 0 | nilotinib 0.006 | [6] -0.112 | dasatinib -0.131 | [7] -0.047 | [8] 0.036 | [9] -0.036 | tipifarnib -0.123 | mubritinib 0.111

RBP5 (UniProt P82980)
inactive: [1] -0.017 | crizotinib -0.07 | [2] 0.004 | [3] -0.066 | duvelisib 0.101 | gandotinib -0.067 | tozasertib -0.049 | [4] -0.024 | doramapimod 0.249 | bafetinib 0.002 | [5] 0.197 | nilotinib 0.108 | [6] -0.02 | dasatinib 0.15 | [7] -0.001 | [8] 0.146 | tipifarnib 0.075 | mubritinib 0.046

REXO2 (UniProt Q9Y3B8)
inactive: [1] -0.009 | crizotinib 0.029 | [2] 0.039 | [3] -0.074 | duvelisib 0.024 | gandotinib 0.005 | tozasertib -0.006 | [4] -0.067 | doramapimod -0.058 | ispinesib 0.009 | bafetinib -0.038 | [5] -0.031 | nilotinib -0.015 | [6] 0.033 | dasatinib 0.016 | [7] 0.002 | [8] 0.029 | [9] 0.001 | tipifarnib -0.027 | mubritinib 0.037

RBM42 (UniProt Q9BTD8)
inactive: [1] -0.024 | crizotinib 0.052 | [2] -0.267 | [3] 0.181 | duvelisib -0.128 | gandotinib 0.025 | tozasertib 0.028 | [4] 0.038 | doramapimod 0.041 | ispinesib 0.088 | bafetinib 0.085 | [5] -0.168 | nilotinib -0.029 | [6] 0.086 | dasatinib 0.069 | [7] -0.067 | [8] -0.105 | [9] -0.047 | tipifarnib 0.076 | mubritinib -0.071

RFXAP (UniProt O00287)
inactive: [1] 0.182 | crizotinib 0.02 | [2] -0.057 | [3] -0.012 | duvelisib -0.021 | tozasertib -0.018 | [4] -0.058 | doramapimod -0.01 | ispinesib -0.036 | bafetinib 0.017 | nilotinib 0.012 | [6] -0.015 | dasatinib 0.016 | [7] -0.047 | [8] -0.077 | [9] -0.093 | tipifarnib 0.162 | mubritinib 0.033

RHOT1 isoform 3 (UniProt Q8IXI2)
inactive: [1] 0.019 | crizotinib -0.066 | [2] 0.103 | [3] -0.037 | duvelisib 0.014 | gandotinib -0.089 | tozasertib -0.001 | [4] 0.009 | doramapimod -0.002 | ispinesib -0.028 | bafetinib -0.054 | [5] 0.012 | nilotinib -0.051 | [6] -0.004 | dasatinib -0.059 | [7] -0.007 | [8] 0.007 | [9] 0.003 | tipifarnib 0.008 | mubritinib 0.038

RNF146 (UniProt Q9NTX7)
inactive: [1] 0.036 | crizotinib 0.028 | [2] 0.229 | [3] 0.166 | duvelisib 0.17 | tozasertib 0.07 | [4] -0.037 | doramapimod 0.01 | ispinesib 0.063 | bafetinib -0.114 | dasatinib -0.028 | [8] 0.049 | [9] -0.132 | tipifarnib -0.083

RCC2 (UniProt Q9P258)
inactive: [1] 0.03 | crizotinib 0.046 | [2] 0.078 | [3] -0.025 | duvelisib 0.038 | gandotinib -0.039 | tozasertib -0.019 | [4] 0 | doramapimod -0.015 | ispinesib 0.059 | bafetinib -0.029 | [5] 0.028 | nilotinib -0.013 | [6] 0.006 | dasatinib -0.053 | [7] -0.013 | [8] 0.043 | [9] 0.018 | tipifarnib -0.065 | mubritinib 0.039

RHEB (UniProt Q15382)
inactive: [1] -0.001 | crizotinib 0.038 | [2] 0.096 | [3] -0.041 | gandotinib -0.097 | [4] -0.009 | doramapimod -0.018 | ispinesib 0.042 | bafetinib 0.01 | [5] 0.004 | nilotinib -0.027 | [6] 0.001 | dasatinib 0.004 | [7] 0.04 | [8] 0.035 | [9] 0.001 | tipifarnib -0.042 | mubritinib 0.004

Copied from above (2 entries):
RCC2 (UniProt Q9P258)
inactive: [1] 0.03 | crizotinib 0.046 | [2] 0.078 | [3] -0.025 | duvelisib 0.038 | gandotinib -0.039 | tozasertib -0.019 | [4] 0 | doramapimod -0.015 | ispinesib 0.059 | bafetinib -0.029 | [5] 0.028 | nilotinib -0.013 | [6] 0.006 | dasatinib -0.053 | [7] -0.013 | [8] 0.043 | [9] 0.018 | tipifarnib -0.065 | mubritinib 0.039

RHEB (UniProt Q15382)
inactive: [1] -0.001 | crizotinib 0.038 | [2] 0.096 | [3] -0.041 | gandotinib -0.097 | [4] -0.009 | doramapimod -0.018 | ispinesib 0.042 | bafetinib 0.01 | [5] 0.004 | nilotinib -0.027 | [6] 0.001 | dasatinib 0.004 | [7] 0.04 | [8] 0.035 | [9] 0.001 | tipifarnib -0.042 | mubritinib 0.004

Further records:

RFFL (UniProt Q8WZ73)
inactive: [1] 0.03 | crizotinib 0.069 | [2] 0.1 | [3] -0.033 | duvelisib -0.031 | tozasertib -0.133 | [4] 0.2 | doramapimod -0.053 | ispinesib 0.002 | bafetinib 0.079 | nilotinib -0.053 | [6] -0.106 | dasatinib -0.058 | [7] -0.12 | [8] -0.047 | [9] -0.004 | tipifarnib -0.064 | mubritinib -0.119
